Data taken from article PMC2567031.
Results are given in words; binding and its absence hold for the method and conditions named. In cells and extracts the contact can be indirect. Binding calls can cover weak binding; strength is not graded here.

Protein sequences, listed by entry. Tags and fused reporters are not part of them. Lines headed by an entry give the natural chain unless they say otherwise; changes in a name come on top. Residues count along the entry.
UniProt P56480, residues 47-529: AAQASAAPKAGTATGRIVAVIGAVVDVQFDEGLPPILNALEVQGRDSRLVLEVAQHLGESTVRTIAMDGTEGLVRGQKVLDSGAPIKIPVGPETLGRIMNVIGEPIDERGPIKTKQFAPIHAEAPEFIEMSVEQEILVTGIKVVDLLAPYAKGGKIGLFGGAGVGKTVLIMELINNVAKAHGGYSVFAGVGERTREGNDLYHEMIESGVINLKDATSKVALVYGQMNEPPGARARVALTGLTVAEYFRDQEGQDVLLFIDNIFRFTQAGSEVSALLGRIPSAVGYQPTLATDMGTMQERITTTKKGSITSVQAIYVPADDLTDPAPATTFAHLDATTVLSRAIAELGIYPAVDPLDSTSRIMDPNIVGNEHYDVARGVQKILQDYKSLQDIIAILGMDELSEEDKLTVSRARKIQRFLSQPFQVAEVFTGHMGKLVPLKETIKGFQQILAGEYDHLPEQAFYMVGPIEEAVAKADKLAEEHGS
UniProt P00441: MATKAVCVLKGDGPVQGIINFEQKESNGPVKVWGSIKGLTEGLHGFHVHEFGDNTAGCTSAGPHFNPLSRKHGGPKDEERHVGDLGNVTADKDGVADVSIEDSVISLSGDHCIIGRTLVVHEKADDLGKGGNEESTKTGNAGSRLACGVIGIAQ

Target: ATP synthase β subunit (mouse (endogenous in mouse spinal cord)) (UniProt P56480)
Test: co-IP; mouse spinal cord extracts; precipitation with antibodies to ATP1A, Hsp/Hsc70 or ATP5B on protein A/G plus-agarose; blots for hSOD1 or uSOD1

binding: binds
Substance: SOD1^Leu126delTT with a FLAG sequence at C terminal (DF mutant SOD1) (from UniProt P00441)
